Laboratory results taken from patent publication US12064464B2, “Plantaricin NC8 alpha beta markedly enhances the effects of antibiotics” (priority 2018, dated 2024).
Some of these results come from one statement about several compounds together.

System: S. epidermidis
Assay: Broth microdilution MIC/MBC, strain not named
Type: cell-based, Staphylococcus epidermidis
Details: FIG. 15/16, listed as L-PLNC8 αβ
Text: Staphylococcus aureus CCUG 35601 (MRSA, Culture Collection, University of Gothenburg) and Staphylococcus aureus ATCC 29213 (MSSA, ATCC, Manassas, VA). Staphylococcus epidermidis ATCC 12228 (ATCC, Manassas, VA), RP62A, N15 and 10 clinical isolates of Staphylococcus epidermidis that have previously been characterized. Isolated Escherichia coli, Enterococcus faecium (including VRE), Pseudomonas aeruginosa, Klebsiella pneumoniae, Enterobacter spp and Acinetobacter baumannii were obtained from Orebro University hospital. Isolated Streptococcus mutans, Streptococcus constellatus and Streptococcus anginosus were obtained from Malmo University. The bacteria were grown on Luria-Bertani (LB) agar plates, supplemented with 5% defibrinated horse blood, and incubated at 37° C. overnight. Single colonies were inoculated into 5 ml of LB broth and incubated on a shaker (300 rpm) at 37° C. overnight. The bacterial concentration was determined by viable count and adjusted to correlate with approximately 10^9 CFU/ml.
The broth microdilution method was used to determine minimal inhibitory concentration (MIC) and minimal bactericidal concentration (MBC). Two-fold serial dilutions of the peptides were used and the final concentrations ranged from 0.097-50 μM. […]

B1: PLNC8 αβ: two-peptide class IIb bacteriocin of L. plantarum NC8: PLNC8 α (SEQ ID NO 1) with PLNC8 β (SEQ ID NO 2) (peptide)
alpha: DLTTKLWSSWGYYLGKKARWNLKHPYVQF
beta: SVPTSVYTLGIKILWSAYKHRKTIEKSFNKGFYH
modifications: Lactobacillus plantarum NC8
decrease of MIC and MBC of teicoplanin by the peptides: > 10 fold
